# Test results from the supplement of paper PMC10338343.
# ± gives the standard deviation. This is a selection; strong and weak results do not stand in their true shares. Many of these values have a large error.
# Test system: EfPiwi piRISC loaded with piRNA #1 (26 nt)
# Test: pre-steady-state target cleavage rate (min^-1); guide: piRNA #1 5'p-UGAGGUAGUAGGUUGUAUAGUAUCCA; MIWI and MILI are mouse PIWI proteins and EfPiwi is from a freshwater sponge; tags in brackets are library labels; higher = faster piRNA-guided slicing of the target
# Conditions: auxiliary factor: 500 nM Ephydatia muelleri Gtsf1
# Summary of the method: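 Cleave-'n-Seq reactions paired 0.1 nM transcribed, DNA-blocked target RNA library with 1 nM active affinity-purified piRISC holding one synthetic guide, plus or minus 500 nM GTSF1 partner protein, in HEPES–potassium acetate buffer at 33 °C for 0–8 or 0–960 min. After sequencing of uncleaved targets and normalisation to depth and weakly complementary targets, the pre-steady-state cleavage rate was taken from a burst-and-steady-state fit. Three trials were pooled, and k3 was capped at 0.0001 min^-1.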
row,Sequence,pre-steady-state target cleavage rate
1,GGAGACCUAUGAUAUGUACCUACUACCCCA,0.000329 ± 0.016
2,GGAGACCAUACUAUACAACCUACUACCGUCA,0.00677 ± 0.0025
3,GGAGACCAUAGUUUACAACCUACUACCUCA,0.0227 ± 0.0096
4,GGAGACCUAUCUAUACAACCUUCUACGUCA,0.00205 ± 0.0049
5,GGAGACCAUACUAAACAACGUACUACCUCA,0.00133 ± 0.005
6,GGAGACCAUACUGAUACAACCUACUACCUCA,0.0368 ± 0.013
7,GGAGAGGAUACUAUUCAAGCUACUACCUCA,0.00323 ± 0.002
8,GGAGACCUAACUAUACAUACCUACUACCUCA,0.000386 ± 0.018
9,GGAGACCUUACUAUACAACGUAGUACCUCA,0.0032 ± 0.0044
10,GGAGACCUAUCUAUACAACCUACUAGCUGA,0.00272 ± 0.0052
11,GGAGAGCAUACUAUACAACCUACUACCUCA,0.0285 ± 0.012
12,GGAGACCUAACUAUACAACCUACUACACUCA,0.00419 ± 0.0048
13,GGAGACCUAACUAUACAACCUACUAGCUCA,0.00459 ± 0.0036
14,GGAGUGGAUACUAUACAAGCCUACUACCUCA,0.0104 ± 0.0053
15,GGAGACCUAUGUAUACAAGCUACUACCUGA,0.000394 ± 0.0074
16,GGAGUCGAUACUAUACAAGCUACUACCUCA,0.00581 ± 0.0024
17,GGAGUGGAUAGUAAACAACCUACUACCUCA,0.00331 ± 0.0045
18,GGAGACCUAUCUAUACAAGCUACUACGUCA,0.00274 ± 0.0026
19,GGAGACCUAAGUAUACAACCUACUAGCUCA,0.0028 ± 0.0037
20,GGAGACCUAUGUUAUACAACCUACUACCUCA,0.0122 ± 0.0063
21,GGAGACCUAUGAUAUGUUCCUACAACGUCA,< 0.0001
22,GGAGACCUUACUUUACAACCAACUACCUCA,0.0015 ± 0.0056
23,GGAGACCAUACUAUACAACCUACUCACCUCA,0.00397 ± 0.0041
24,GGAGACCUUACUUUACAAGCUACUACCUCA,0.00243 ± 0.0047
